Reference: publication PMC3561413 (PLoS ONE, 2013)

Columns and labels:
[1] = tested on: Ba/F3-EPOR VF cells (JAK2V617F); experiment: Inhibition of proliferation assay (WST-1, 48 h), Ba/F3-EPOR VF; type: cell-based, mouse; settings: read-out: IC50 of cell proliferation in the presence of Epo
Description: (§1) Ba/F3-EPOR cells, both wt and VF, HEL and SET2 cells were plated at 2×10^4 in 96-well culture tissue plates with increasing concentrations of the drug(s), in triplicate, and the amount of viable cells was assessed at 48 h using the WST-1 assay (Roche, USA) after normalization to wells containing an equivalent volume of vehicle (DMSO) only. For clonogenic assay, 5×10^3 cells were plated in 0.5% agar in medium supplemented with 10% FBS (plus 1 U/mL EPO in case of Ba/F3-EPOR wt cells); variable amount of the drug(s) (or an equivalent volume of vehicle in control plates) was added once at the beginning of culture. Colonies were enumerated by inverted microscopy after 7 day incubation, in duplicate. Quantification of apoptotic cells was accomplished by flow cytometry using the Annexin-V-FLUOS Staining kit (Roche); at least 20,000 events were acquired. For cell cycle distribution analysis by flow cytometry, 1×10^6 cells were treated with ethanol 95%, RNase 10 µg/mL and propidium iodide 50 mg/mL.

[2] = tested on: Ba/F3-EPOR VF cells; experiment: Apoptosis (Annexin V flow cytometry), Ba/F3-EPOR VF; type: cell-based, mouse; settings: 48 h, median, read-out: IC50 for apoptosis (Annexin V positive cells)
Description: as §1, with “For cell cycle distribution analysis by flow cytometry, 1×10^6 cells were treated with ethanol 95%, RNase 10 µg/mL and propidium iodide 50 mg/mL.” left out
(§2) In panel A, the frequency of cells in the G0/G1, S and M phase of the cell cycle was measured by flow cytometry after propidium iodide staining of Ba/F3-EPOR VF cells that had been exposed to the drugs for 18 h, and expressed as percent change compared to control cells (Ctrl) with vehicle. […] In panel B, the percentage of Annexin V-positive cells was measured in cultures of Ba/F3-EPOR VF cells exposed to varying amount of the drugs for 48 h; percentage was calculated after subtraction of background apoptosis in cells incubated without drug. […]

[3] = tested on: SET2 cells; experiment: Apoptosis (Annexin V flow cytometry), SET2; type: cell-based, human; settings: SET2, median
Description: as §1

[4] = tested on: CFU-GM from PV patients; experiment: Colony assay for hematopoietic progenitors, CFU-GM, PV patients; type: cell-based, human; settings: PV (n = 10), day 14; read-out: IC50, CFU-GM colony formation
Description: (§3) Figure 3 mTOR and JAK2 inhibitors preferentially suppress colony formation from hematopoietic progenitors of MPN patients as compared to healthy controls. Mononuclear cells from patients with PV or PMF (n = 10 each) or control subjects (n = 10) were plated at 10^5/mL in cytokine-supplemented methylcellulose medium for the growth of erythroid burst-forming unit (BFU-E) and granulocyte-macrophage colony-forming unit (CFU-GM), and CD34^+ cells (5×10^4/mL) were plated in collagen-based medium for megakaryocyte colony-forming unit (CFU-Mk). […] Colonies were enumerated on day 14 and expressed as a percentage of the colonies grown in control plates containing vehicle only.

[5] = tested on: CFU-Mk from healthy controls; experiment: Colony assay for hematopoietic progenitors, CFU-Mk, healthy controls; type: cell-based, human; settings: Ctrl (n = 10), day 14; read-out: IC50, CFU-Mk colony formation
Description: as §3

[6] = tested on: CFU-GM from healthy controls; experiment: Colony assay for hematopoietic progenitors, CFU-GM, healthy controls; type: cell-based, human; settings: Ctrl (n = 10), day 14; read-out: IC50, CFU-GM colony formation
Description: as §3

[7] = tested on: CD34+ cells from healthy controls; experiment: CD34+ proliferation assay (WST-1, 48 h), healthy controls; type: cell-based, human; settings: read-out: IC50 of CD34+ cell proliferation
Description: (§4) To measure the drug-induced inhibition of CD34^+ cell growth, purified cells were plated at 3·10^4 cells/well in IDMEM supplemented with cytokines and variable amounts of the drugs were added. Cell proliferation was evaluated using the WST-1 Assay (Roche, USA) after 48 h and results were normalized to wells containing vehicle only.
(§5) Figure 2 Inhibition of proliferation of CD34^+ cells from PMF patients by mTOR and JAK2 inhibitors. CD34^+ cells from patients with PMF (n = 6) or control subjects (Ctr; n = 5) were plated at 2×10^5/mL in 96-well culture tissue plates with increasing concentrations of the drugs, in triplicate; viable cells were assessed after 48 hrs using the WST-1 assay and normalized to wells containing an equivalent volume of vehicle (DMSO) only.

[8] = tested on: EEC from peripheral blood mononuclear cells of PV patients; experiment: EEC assay (erythropoietin-independent erythroid colonies), PV patients; settings: read-out: IC50 of EEC growth, single drug, without EPO, scored at 10 days
[9] = tested on: BFU-E from PMF patients; experiment: Colony assay for hematopoietic progenitors, BFU-E, PMF patients; type: cell-based, human; settings: MF (n = 10), day 14; read-out: IC50, BFU-E colony formation
Description: as §3

[10] = tested on: Ba/F3-EPOR VF cells; experiment: Cell cycle distribution analysis by flow cytometry (propidium iodide), Ba/F3-EPOR VF; type: cell-based, mouse; settings: after 24 hours, median value, read-out: concentration giving 50% reduction of the cells in the S-phase compared to untreated cells
Description: as §1, with “For cell cycle distribution analysis by flow cytometry, 1×10^6 cells were treated with ethanol 95%, RNase 10 µg/mL and propidium iodide 50 mg/mL.” left out
as §2

[11] = tested on: SET2 cells; experiment: Cell cycle distribution analysis by flow cytometry, SET2; type: cell-based, human; settings: SET2, median concentration; read-out: concentration giving 50% reduction of cells in the S-phase compared to controls
Description: as §1

[12] = tested on: BFU-E from healthy controls; experiment: Colony assay for hematopoietic progenitors, BFU-E, healthy controls; type: cell-based, human; settings: Ctrl (n = 10), day 14; read-out: IC50, BFU-E colony formation
Description: as §3

[13] = tested on: Ba/F3-EPOR wt cells (JAK2 wild-type); experiment: Clonogenic assay in agar, Ba/F3-EPOR wt; type: cell-based, mouse; settings: read-out: IC50 of colony formation (clonogenic assay)
Description: as §1

[14] = tested on: CFU-GM from PMF patients; experiment: Colony assay for hematopoietic progenitors, CFU-GM, PMF patients; type: cell-based, human; settings: MF (n = 10), day 14; read-out: IC50, CFU-GM colony formation
Description: as §3

[15] = tested on: CD34+ cells from PMF patients; experiment: CD34+ proliferation assay (WST-1, 48 h), PMF patients; type: cell-based, human; settings: read-out: IC50 of CD34+ cell proliferation
Description: as §4, §5

[16] = tested on: CFU-Mk from PV patients; experiment: Colony assay for hematopoietic progenitors, CFU-Mk, PV patients; type: cell-based, human; settings: PV (n = 10), day 14; read-out: IC50, CFU-Mk colony formation
Description: as §3

[17] = tested on: BFU-E from PV patients; experiment: Colony assay for hematopoietic progenitors, BFU-E, PV patients; type: cell-based, human; settings: PV (n = 10), day 14; read-out: IC50, BFU-E colony formation
Description: as §3

[18] = tested on: Ba/F3-EPOR VF cells (JAK2V617F); experiment: Clonogenic assay in agar, Ba/F3-EPOR VF; type: cell-based, mouse; settings: read-out: IC50 of colony formation (clonogenic assay)
Description: as §1

[19] = tested on: HEL cells (JAK2V617F mutated); experiment: Clonogenic assay in agar, HEL; type: cell-based, human
Description: as §1

IC50 [1]: 750 ± 100 nM
IC50 [2]: 4000 nM
IC50 [3]: 5200 nM
IC50 [4]: 31 ± 15 nM
IC50 [9]: 38 ± 8 nM
IC50 [10]: 1870 nM
IC50 [11]: 2700 nM
IC50 [13]: 308 ± 100 nM
IC50 [14]: 46 ± 20 nM
IC50 [16]: 3 ± 1 nM
IC50 [17]: 58 ± 18 nM
IC50 [18]: 47 ± 12 nM
IC50 [19]: 172 ± 59 nM
SMILES: CC(C)n1nc(-c2cc3cc(O)ccc3[nH]2)c2c(N)ncnc21 [PP242]
IC50 [5]: 13 ± 2 nM
IC50 [6]: 148 ± 40 nM
IC50 [7]: 2900 nM
IC50 [8]: 1 ± 0.7 nM
IC50 [12]: 233 ± 50 nM
IC50 [15]: 800 ± 200 nM
